These results are taken from PMC12663577.

Protein sequences, listed by entry. Tags and fused reporters are not part of them. Lines headed by an entry give the natural chain unless they say otherwise; changes in a name come on top.
UniProt Q8N122: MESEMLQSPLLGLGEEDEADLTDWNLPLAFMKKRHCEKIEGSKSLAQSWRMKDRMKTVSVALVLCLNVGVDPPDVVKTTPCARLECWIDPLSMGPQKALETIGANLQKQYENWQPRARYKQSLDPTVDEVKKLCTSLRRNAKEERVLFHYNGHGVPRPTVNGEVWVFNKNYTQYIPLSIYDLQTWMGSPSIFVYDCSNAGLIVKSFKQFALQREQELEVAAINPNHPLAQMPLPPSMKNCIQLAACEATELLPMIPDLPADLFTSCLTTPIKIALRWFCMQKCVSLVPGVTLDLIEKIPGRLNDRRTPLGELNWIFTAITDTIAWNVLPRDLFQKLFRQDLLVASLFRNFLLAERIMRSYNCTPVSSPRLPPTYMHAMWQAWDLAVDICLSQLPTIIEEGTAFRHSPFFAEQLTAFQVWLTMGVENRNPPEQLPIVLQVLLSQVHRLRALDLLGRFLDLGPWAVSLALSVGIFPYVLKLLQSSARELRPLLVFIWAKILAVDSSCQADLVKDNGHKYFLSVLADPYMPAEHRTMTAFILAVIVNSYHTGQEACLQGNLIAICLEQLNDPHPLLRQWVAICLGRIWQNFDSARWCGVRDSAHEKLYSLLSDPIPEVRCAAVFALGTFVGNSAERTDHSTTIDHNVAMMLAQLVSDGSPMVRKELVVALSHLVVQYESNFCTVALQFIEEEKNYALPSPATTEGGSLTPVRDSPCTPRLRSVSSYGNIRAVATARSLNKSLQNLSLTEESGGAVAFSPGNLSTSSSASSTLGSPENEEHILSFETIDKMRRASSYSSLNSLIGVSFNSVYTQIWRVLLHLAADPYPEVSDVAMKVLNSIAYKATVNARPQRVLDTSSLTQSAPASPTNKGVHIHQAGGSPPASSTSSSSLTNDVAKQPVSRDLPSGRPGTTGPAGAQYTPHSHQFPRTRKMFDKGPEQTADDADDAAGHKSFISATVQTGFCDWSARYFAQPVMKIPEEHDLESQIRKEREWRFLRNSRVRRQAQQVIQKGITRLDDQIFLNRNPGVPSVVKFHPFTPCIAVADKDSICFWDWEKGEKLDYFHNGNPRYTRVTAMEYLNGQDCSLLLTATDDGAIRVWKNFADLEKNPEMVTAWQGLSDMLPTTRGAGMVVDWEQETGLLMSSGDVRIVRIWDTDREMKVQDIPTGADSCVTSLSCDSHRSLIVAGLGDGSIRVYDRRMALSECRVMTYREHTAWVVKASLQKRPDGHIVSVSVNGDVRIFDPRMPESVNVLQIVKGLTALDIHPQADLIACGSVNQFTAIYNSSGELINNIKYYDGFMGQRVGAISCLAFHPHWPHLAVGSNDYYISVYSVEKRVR
UniProt Q96E35: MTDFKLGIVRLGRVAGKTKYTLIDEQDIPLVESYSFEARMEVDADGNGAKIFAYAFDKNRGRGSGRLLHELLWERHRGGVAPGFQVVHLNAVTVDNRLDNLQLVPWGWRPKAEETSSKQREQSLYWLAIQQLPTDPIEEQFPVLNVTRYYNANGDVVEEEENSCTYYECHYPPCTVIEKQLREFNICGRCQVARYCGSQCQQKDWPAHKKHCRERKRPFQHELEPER
UniProt P23443: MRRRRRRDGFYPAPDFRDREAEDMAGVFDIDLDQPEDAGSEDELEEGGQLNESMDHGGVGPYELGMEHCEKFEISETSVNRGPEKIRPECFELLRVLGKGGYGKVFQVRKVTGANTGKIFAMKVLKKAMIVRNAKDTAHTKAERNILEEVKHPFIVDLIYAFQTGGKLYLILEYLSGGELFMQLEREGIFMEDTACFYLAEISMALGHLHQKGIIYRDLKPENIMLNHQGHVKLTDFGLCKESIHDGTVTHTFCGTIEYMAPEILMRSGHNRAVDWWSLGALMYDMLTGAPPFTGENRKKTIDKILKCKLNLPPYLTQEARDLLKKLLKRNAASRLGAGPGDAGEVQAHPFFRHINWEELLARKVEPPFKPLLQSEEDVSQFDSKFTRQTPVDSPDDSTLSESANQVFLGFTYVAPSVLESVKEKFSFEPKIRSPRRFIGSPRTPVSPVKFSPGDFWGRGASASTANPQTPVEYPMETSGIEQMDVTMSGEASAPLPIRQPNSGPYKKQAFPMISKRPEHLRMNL

Results are given in words; binding and its absence hold for the method and conditions named. In cells and extracts the contact can be indirect. Some binding calls cover weakened binding; strength is not graded here. For some of these results: Sequences can lack the tags named with a protein.

Assay [1] deals with GFP-tagged Raptor (pLJM1-Raptor-GFP) (UniProt Q8N122). The assay is described as follows: co-IP; GFP-Trap agarose, 293T with stable Rheb-V5 expression transiently transfected with GFP or Raptor-GFP, without or with MKLN1 and ZMYND19 expression vectors; immunoblot.
The target is the same in assay [2]. The assay is described as follows: co-IP; GFP-Trap agarose, 6 h at 4 °C, 293T control single cell clones transiently transfected with Rheb-V5 and Raptor-GFP or GFP; immunoblot. A general note: In western blotting, separated proteins are transferred to a membrane and probed.
For assay [3], the target named is FLAG-tagged MKLN1 and ZMYND19, co-expressed (ZMYND19/MKLN1) (UniProt Q96E35). The assay is described as follows: co-IP; anti-FLAG immunopurification from 293T transiently transfected with FLAG-tagged ZMYND19 and MKLN1, Myc-tagged Raptor and either HA-tagged Rheb or HA-tagged RagA and RagC (wild type or GTP/GDP-restricted point mutants); immunoblot.
The target in another assay is T1, TMEM192-FLAG (UniProt Q8IY95).
T1 sequence: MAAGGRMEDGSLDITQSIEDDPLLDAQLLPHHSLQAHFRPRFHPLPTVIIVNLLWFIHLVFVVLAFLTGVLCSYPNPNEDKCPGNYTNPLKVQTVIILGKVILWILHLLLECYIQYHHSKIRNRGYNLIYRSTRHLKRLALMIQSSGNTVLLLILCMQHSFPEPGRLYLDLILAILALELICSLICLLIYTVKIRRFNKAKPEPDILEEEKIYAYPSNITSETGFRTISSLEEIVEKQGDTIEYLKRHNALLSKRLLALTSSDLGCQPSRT
In words: co-IP; anti-FLAG immunopurification from HEK-293T transiently transfected for 24 h with one FLAG-tagged bait and Raptor-MYC, no ZMYND19 co-expressed with the other baits; immunoblot.

The next assay deals with FLAG-ZMYND19 (UniProt Q96E35). The assay is described as above.
For the next assay, the target named is S6K-Flag (pRK-S6K-Flag) (UniProt P23443). The assay is described as follows: co-IP; 293T co-transfected with pRK-S6K-Flag (or pRK-Metap2-Flag) and pLJM1-Raptor-GFP; control and MAEA KO cells (association impaired by MAEA KO); which tag was precipitated was not shown.
Assay [4] concerns the target V5-tagged full-length ZMYND19 (UniProt Q96E35). The assay is described as follows: co-IP; anti-V5-tag magnetic beads, 3 h at 4 °C, lysates (IP lysis buffer) of cells stably expressing V5-tagged cDNAs from pLX-TRC313 lentivirus; YCCEL1 and 293T; ZMYND19 also from MKLN1 depleted cells; immunoblot.

Take “S6K (endogenous) (from UniProt P23443 1-525)”: the binding result in assay [1] and in assay [2] was “binds” each time.
For the substance “HA-tagged Rheb (from UniProt Q15382 1-184)”, in assay [3], the binding result is given as “no binding”.
Consider “Myc-tagged Raptor (from UniProt Q8N122 1-1335)”, for which the figures for the binding result with TMEM192-FLAG and in the assay with FLAG-ZMYND19 were “no binding” and “binds”, respectively.
Regarding “GFP-tagged Raptor (pLJM1-Raptor-GFP) (from UniProt Q8N122 1-1335)”, the binding entry with S6K-Flag (pRK-S6K-Flag) was “binds”.
For the substance “Raptor (found with V5-tagged ZMYND19) (from UniProt Q8N122 1-1335)”, the binding result in assay [4] is on record as “binds”.
